Results deposited as PubChem BioAssay AID504804 (Drosophila RNAi Screening Center, 2011)
Test: 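Fly genes whose loss lessens doxorubicin-driven cell death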 (primary screen). Cells: Drosophila Kc cells. Reagent: long dsRNA against Drosophila genes, 0.5 µg dsRNA per well. Duration: 96 h (48 h knock-down, then 48 h drug). Conditions: doxorubicin 5 µg/ml for 48 h, added 48 h after dsRNA. Read-out: 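Viability measured as cellular ATP by luminescence after 48 h knock-down then 48 h doxorubicin at 5 µg/ml; unnormalised plate counts for each replicate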. Scale: raw ATP luminescence: higher = more viable cells, protection from doxorubicin. Active means: 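Active when both duplicate wells lie at least 2 SD above the plate mean and protection is confirmed by rescreening and independent dsRNAs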.
The screen tested about 19,000 reagents; below is an unselected part of those that have a named target and a result. In the full data, 47 (0.25%) are marked active. 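Signals are raw, not normalised; exact z-scores behind calls not deposited; actives needed confirmation, so some wells reaching 2 SD are inactive.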 A plus sign joins genes that one reagent is predicted to hit.

gene,DRSC id,"raw ATP luminescence, replicate 1","raw ATP luminescence, replicate 2",Outcome
Nulp1 (Nuclear localized protein 1),DRSC09677,47500,40277,inactive
inaC (inactivation no afterpotential C),DRSC07632,62537,69880,inactive
CG16953,DRSC15167,59390,46370,inactive
Nlg2 (Neuroligin 2),DRSC03578,37480,42467,inactive
Gcn5 (Gcn5 acetyltransferase),DRSC11248,24207,22247,inactive
Coq4 + Gorab + frc,DRSC10383,42470,29860,inactive
CG31031 (retired record),DRSC13964,2.13e5,2.14e5,inactive
chico,DRSC03531,91687,60917,inactive
CtIP (CTBP-interacting protein),DRSC11785,72093,62187,inactive
Poxm (Pox meso),DRSC16793,56807,48543,inactive
mRpL14 (mitochondrial ribosomal protein L14),DRSC18597,43320,55000,inactive
Ir92a (Ionotropic receptor 92a),DRSC15111,45200,46300,inactive
PRL-1 (PRL-1 phosphatase),DRSC03393,50267,62923,inactive
thoc5,DRSC04327,92167,62523,inactive
CG4741,DRSC04485,42733,38983,inactive
CG13041,DRSC09922,58157,43250,inactive
Archease,DRSC16025,47580,59660,inactive
CG34149,DRSC14537,43343,34970,inactive
Desat2 (Desaturase 2),DRSC15919,61817,59537,inactive
l(2)05714 (lethal (2) 05714),DRSC03118,1.00e5,62703,inactive
CG8501,DRSC07198,47633,43180,inactive
Lsp2 (Larval serum protein 2),DRSC09841,69830,77117,inactive
Lsp2 (Larval serum protein 2),DRSC11216,65170,81317,inactive
CG32195,DRSC09533,90633,89693,inactive
Gtpx,DRSC08221,42640,44620,inactive
spartin,DRSC12187,64443,49623,inactive
Wnk (Wnk kinase),DRSC11813,45897,51023,inactive
Grl58a (Gustatory receptor-like 58a),DRSC04145,59597,44860,inactive
"Grx1t (Glutaredoxin 1, testis-specific)",DRSC04530,48513,50187,inactive
CG4983,DRSC02799,79870,67077,inactive
Nrx-1 (Neurexin 1),DRSC16184,30277,37547,inactive
Lapsyn (Leucine-rich repeat activity-regulated protein at synapses),DRSC04249,74137,71093,inactive
CG9649,DRSC16534,51627,19597,inactive
nw (narrow),DRSC06749,74777,63643,inactive
CG42361,DRSC04391,39453,41950,inactive
CG15118,DRSC06540,65760,74440,inactive
CG34375,DRSC14684,71380,56980,inactive
CG34375,DRSC14685,52070,54880,inactive
Rae1,DRSC04577,75170,71003,inactive
dpr10 (defective proboscis extension response 10),DRSC09015,1.61e5,1.61e5,inactive
dpr10 (defective proboscis extension response 10),DRSC09018,1.69e5,1.62e5,inactive
dpr10 (defective proboscis extension response 10),DRSC10159,66433,58847,inactive
dpr10 (defective proboscis extension response 10),DRSC10160,60733,72923,inactive
CG30016,DRSC05242,90680,94023,inactive
RecQ4 (RecQ4 helicase),DRSC11265,68880,80280,inactive
kar (karmoisin),DRSC14496,55313,28767,inactive
Nlg3 (Neuroligin 3),DRSC12477,63310,58887,inactive
Nlg3 (Neuroligin 3),DRSC12524,58933,52490,inactive
Nlg3 (Neuroligin 3),DRSC12540,65163,56497,inactive
Nlg3 (Neuroligin 3),DRSC12574,48660,61970,inactive
Obp8a (Odorant-binding protein 8a),DRSC17868,3.23e5,3.40e5,inactive
CG33223,DRSC17572,1.92e5,2.01e5,inactive
CG10845,DRSC14272,57960,65480,inactive
RpS19a (Ribosomal protein S19a),DRSC20281,1.59e5,1.14e5,inactive
phol (pleiohomeotic like),DRSC10367,25787,21340,inactive
Fer3 (48 related 3),DRSC16133,45157,27023,inactive
CG15332,DRSC18015,26980,28660,inactive
